Experimental findings from article PMC12140344 are described below.

Sequences of proteins named here, by UniProt entry; tags and fusion partners are left off. A change or cut given only in a name is not applied to a line headed by its entry. Residues count along the entry.
UniProt Q14258: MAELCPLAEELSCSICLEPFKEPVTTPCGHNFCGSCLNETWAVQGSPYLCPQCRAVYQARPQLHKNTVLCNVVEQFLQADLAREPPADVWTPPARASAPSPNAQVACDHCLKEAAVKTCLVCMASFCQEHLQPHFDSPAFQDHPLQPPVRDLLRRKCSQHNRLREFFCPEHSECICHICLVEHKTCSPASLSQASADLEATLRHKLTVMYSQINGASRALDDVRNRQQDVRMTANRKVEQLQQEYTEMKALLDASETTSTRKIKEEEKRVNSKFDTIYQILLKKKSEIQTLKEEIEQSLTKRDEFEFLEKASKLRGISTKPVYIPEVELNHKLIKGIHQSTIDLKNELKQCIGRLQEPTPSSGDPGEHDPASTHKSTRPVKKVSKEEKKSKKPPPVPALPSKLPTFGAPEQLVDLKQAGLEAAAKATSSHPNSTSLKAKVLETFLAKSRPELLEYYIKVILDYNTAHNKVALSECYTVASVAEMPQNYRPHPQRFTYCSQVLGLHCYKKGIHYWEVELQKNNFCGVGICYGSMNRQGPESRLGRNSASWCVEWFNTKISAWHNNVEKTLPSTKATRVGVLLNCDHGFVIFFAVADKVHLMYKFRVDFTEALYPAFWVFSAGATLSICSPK
HA‐△TRIM25 (mutant TRIM25 lacking amino acids 401–630): residues 1-400 of Q14258
TRIM25 C‐terminal domain (401‐630aa), HA‐TRIM25 truncated: residues 401-630 of Q14258

The target in test [1] is tripartite motif‐containing 25 (TRIM25), endogenous in MIHA cells (human (endogenous in MIHA)) (UniProt Q14258). The experiment in a line: co-IP; immunoprecipitation from MIHA cells, endogenous proteins.
Another test has as its target HA‐TRIM25 (HEK293T) (UniProt Q14258). Put plainly: co-IP; HEK293T (293T) cells co‐transfected with HA‐TRIM25 or HA‐△TRIM25 and Flag‐INSIG1, immunoprecipitation.
Test [2] concerns the target HA‐△TRIM25 (mutant TRIM25 lacking amino acids 401–630) (UniProt Q14258). Described as above.
Test [3] has as its target TRIM25 C‐terminal domain (401‐630aa), HA‐TRIM25 truncated (UniProt Q14258). Put plainly: co-IP; MIHA cells transfected with HA‐TRIM25 truncated plasmids and Flag‐INSIG1, immunoprecipitation.

These are yes or no findings as the source states them, for the method shown. In cells and extracts the contact can be indirect. Some results given as binding are weak or reduced against the parent protein; the word gives no strength. For some of these results: Where a sequence is shown, tags or fusion partners need not be part of it.

B1: insulin‐induced gene 1 (INSIG1), endogenous in MIHA cells (protein, UniProt O15503 1-277)
chain: MPRLHDHFWSCSCAHSARRRGPPRASAAGLAAKVGEMINVSVSGPSLLAAHGAPDADPAPRGRSAAMSGPEPGSPYPNTWHHRLLQRSLVLFSVGVVLALVLNLLQIQRNVTLFPEEVIATIFSSAWWVPPCCGTAAAVVGLLYPCIDSHLGEPHKFKREWASVMRCIAVFVGINHASAKLDFANNVQLSLTLAALSLGLWWTFDRSRSGLGLGITIAFLATLITQFLVYNGVYQYTSPDFLYIRSWLPCIFFSGGVTVGNIGRQLAMGVPEKPHSD
In the case of B1, the binding entry in test [1] is “binds”.

B2: Flag‐INSIG1 (HEK293T) (protein, UniProt O15503 1-277)
chain: B1 chain
As to B2, the binding result with HA‐TRIM25 (HEK293T) is listed as “binds”; in test [2] it was “no binding”.

B3: Flag‐INSIG1 (MIHA) (protein, UniProt O15503 1-277)
chain: B1 chain
Take B3: in test [3], the binding entry is recorded as “binds”.
